# Assay results reported in PubChem BioAssay.
# Some of the results follow. Potency and affinity values are given separately. Entries without a call are filed as inconclusive in the source.
# Assay: Polyglutamine toxicity reduction dose response, whole organism Drosophila SCA1 model (AID 1595)
# Details: at 1 µM, stronger effect = higher value
row,SMILES,suppression of toxicity
1,C[C@]12CCC3c4ccc(OC(=O)CCC(=O)O)cc4CCC3C1CCC2=O (stereo not given in full),2.86
2,CON,1.43
3,CC(=O)N1CCN(c2ccc(OCC3CO[C@](Cn4ccnc4)(c4ccc(Cl)cc4Cl)O3)cc2)CC1 (stereo not given in full),8.57
4,CCn1cc(C(=O)O)c(=O)c2ccc(C)nc21,2.9
5,Oc1c(Cl)cc(Cl)cc1Sc1cc(Cl)cc(Cl)c1O,2.86
6,CN[C@@H]1[C@H](O)[C@H](NC)[C@H]2O[C@@]3(O)C(=O)C[C@@H](C)O[C@H]3O[C@@H]2[C@H]1O,15.7
7,NC(=O)c1ncn([C@@H]2O[C@H](CO)[C@@H](O)[C@H]2O)c1O,2.86
8,NS(=O)(=O)c1cc2c(cc1Cl)NC(C1CC3C=CC1C3)NS2(=O)=O (stereo not given),1.43
9,CN1C(=O)CC[C@H]1c1cccnc1,0
10,CC12CC[C@@H]3c4ccc(O)cc4CCC3[C@@H]1CCC2=O (stereo not given in full),11.4
11,CC(=O)[C@H]1CCC2C3CC=C4C[C@@H](O)CC[C@]4(C)C3CC[C@@]21C (stereo not given in full),1.43
12,COc1ccc(-c2cc(=O)c3c(O)cc(O[C@@H]4O[C@H](CO[C@H]5O[C@H](C)[C@@H](O)[C@H](O)[C@@H]5O)[C@@H](O)[C@H](O)[C@H]4O)cc3o2)cc1O,0
13,CS(=O)(=O)Nc1ccc([N+](=O)[O-])cc1Oc1ccccc1,20
14,Nc1ccc(S(=O)(=O)c2ccc(N)cc2)cc1,14.3
15,CC(C)=CCc1c2c(c3occ(-c4ccc(O)c(O)c4)c(=O)c3c1O)C=CC(C)(C)O2,0
16,CC(C)CC1C(=O)N2CCC[C@H]2C2(O)O[C@](NC(=O)C3C=C4c5cccc6[nH]c(Br)c(c56)C[C@H]4N(C)C3)(C(C)C)C(=O)N12 (stereo not given in full),1.43
17,CCN(CC)CCOC(=O)C(Cc1cccc2ccccc12)CC1CCCO1 (stereo not given),2.86
18,CCC(=O)c1ccc2c(c1)N(CC(C)N(C)C)c1ccccc1S2 (stereo not given),2.86
19,Cc1cc(C2CCCCC2)n(O)c(=O)c1,0
20,CN1CCN(CC(=O)N2c3ccccc3C(=O)Nc3cccnc32)CC1,7.14

row,SMILES,suppression of toxicity
1,COc1cc(C)c2c(=O)cc(-c3ccccc3)oc2c1,2.86
2,CC1=C(/C=C/C(C)=C/C=C/C(C)=C/CO)C(C)(C)CCC1,1.43
3,CC1(C)C2CC[C@]3(C)C(C(=O)C=C4[C@@H]5C[C@@](C)(C(=O)O)CC[C@]5(C)CC[C@]43C)[C@@]2(C)CC[C@@H]1O (stereo not given in full),0
4,CC[C@]12CCCN3CCc4c(n(c5ccccc45)[C@](O)(C(=O)OC)C1)[C@@H]32,5.71
5,NCCCCNCCCN,0
6,CC[C@H]1OC(=O)[C@H](C)[C@@H](O[C@H]2C[C@@](C)(OC)[C@@H](O)[C@H](C)O2)[C@H](C)[C@@H](O[C@@H]2O[C@H](C)C[C@H](N(C)C)[C@H]2O)[C@](C)(O)C[C@@H](C)CN(C)[C@H](C)[C@@H](O)[C@]1(C)O,7.14
7,CCN1CCCC(OC(=O)C(c2ccccc2)c2ccccc2)C1 (stereo not given),1.43
8,CC(C)CC1NC(=O)CNC1=O (stereo not given),2.85
9,CC1(C)OC(=O)NC1=O,1.43
10,CCN(CC)CCNC(=O)c1ccc(N)cc1,1.43
11,Cc1ccc(C(=O)c2ccc(CC(=O)O)n2C)cc1,8.57
12,NC(=O)c1ncn([C@@H]2O[C@H](CO)[C@@H](O)[C@H]2O)n1,2.85
13,CC/C(=C(\c1ccccc1)c1ccc(OCCN(C)C)cc1)c1ccccc1,1.43
14,Nc1ncnc2c1ncn2C1O[C@H](COP(=O)(O)O)[C@@H](O)[C@H]1O (stereo not given in full),0
15,CC[C@]12CCCN3CCc4c(n(c5ccccc45)C(=O)C1)[C@@H]32,24.3
16,C1CCC(C(CC2CCCCN2)C2CCCCC2)CC1 (stereo not given),0
17,CC(C)NCC(O)c1ccc(O)c(O)c1 (stereo not given),0
18,CC(=O)Oc1ccccc1C(=O)O,7.14
19,Cc1c(NC(C)C)c(=O)n(-c2ccccc2)n1C,12.9
20,Oc1cc(O)c2c(c1)O[C@H](c1ccc(O)c(O)c1)[C@@H](O)C2,7.14

# Sorted by SMILES length (smallest number first): part of the list above
row,SMILES,suppression of toxicity
9,CN1C(=O)CC[C@H]1c1cccnc1,0
4,CCn1cc(C(=O)O)c(=O)c2ccc(C)nc21,2.9
17,CCN(CC)CCOC(=O)C(Cc1cccc2ccccc12)CC1CCCO1 (stereo not given),2.86
